{"source": "PubChem BioAssay AID1347423", "about": "(Functional Genomics Laboratory (NCATS/FGL), 2020)", "note": "Hit rate of the full screen: of about 52,000 sequences, about 210 (0.4%) were called active.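 How the source made its calls: active means gene whose silencing raises cell survival under the drug, median off-target-corrected z-score across its silencing RNAs 2 or more; inactive means the rest.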 The list shows a part of the results."}
{"test": "Resistance to Poly (ADP-Ribose) Polymerase inhibitor: Gene Identification via Genome-wide siRNA Screen", "conditions": "mouse BRCA2 R2336H ES cells, olaparib, CellTiter-Glo viability; stronger effect = higher value", "outline": "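Mouse BRCA2 R2336H ES cells were reverse-transfected with siRNA (20 nM final), treated at 48 h with 500 nM olaparib, and read by CellTiter-Glo after 72 h. Scores: MAD-based z per siRNA, median per gene, seed off-target correction.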"}
{"sequence": "GCUUGGACCAUAAAUACUGTT against Senp5", "z-score": "inactive: 0.259"}
{"sequence": "GAAAGAAACUGCUGAAUGATT against V1re3", "z-score": "inactive: -2.09"}
{"sequence": "GGAUUGAAAAGAUGAAUCGTT against Ict1", "z-score": "inactive: 2.12"}
{"sequence": "GCUUUAAGUACUUUAACGCTT against Ncr1", "z-score": "inactive: 0.629"}
{"sequence": "GCUAAUGUGUUCAUUACAGTT against Nek7", "z-score": "inactive: 0.258"}
{"sequence": "GGAAUUCAAUCUCCUCUACTT against Popdc2", "z-score": "inactive: 2.51"}
{"sequence": "GGAAAUUUGGGUAGGAGUGTT against 2010107E04Rik", "z-score": "inactive: -3.11"}
{"sequence": "GGGAGAAAUACAUACACACTT against Cish", "z-score": "inactive: -0.231"}
{"sequence": "GGAAGAUGGAGGAGAAGAATT against Hrh3", "z-score": "inactive: -0.629"}
{"sequence": "GGUCUUUUAGAGUAGGAUUTT against C130037N17Rik", "z-score": "inactive: 0.284"}
{"sequence": "GCUAUCCUCAAUUGCACACTT against Mjd", "z-score": "inactive: 0.121"}
{"sequence": "GGGUGCAGGAAUUGGUGUUTT against Cd37", "z-score": "inactive: -0.565"}
{"sequence": "GCGAGAUUGGUGCAAAACUTT against Grem1", "z-score": "inactive: 1"}
{"sequence": "GGGAAAGUAAGGGCUGGUUTT against Olfr317", "z-score": "inactive: -0.896"}
{"sequence": "GCUUCCUUAUGGUUUGAACTT against Atp9a", "z-score": "inactive: -0.123"}
{"sequence": "CCUUGAGUACUUAUUGCGUTT against 1810008K03Rik", "z-score": "inactive: -0.0608"}
{"sequence": "GGAGGGAAUCAGAGAACAGTT against 3830402I07Rik", "z-score": "inactive: -0.781"}
{"sequence": "CCCUUGCUUUCAUGAUUUATT against A530023O14Rik", "z-score": "inactive: 1.46"}
{"sequence": "CGUGGCUAAACAAAGAGCUTT against 2810453L12Rik", "z-score": "inactive: 2.38"}
{"sequence": "GGAAUUCUCUAUACCAAGATT against A630033H20Rik", "z-score": "inactive: -1.26"}
{"sequence": "CCUAAUGUAGUUGUCUCUUTT against Rbp3", "z-score": "inactive: -1.34"}
{"sequence": "GCACUGUUUGUCAAGAAUGTT against Cdc42ep4", "z-score": "inactive: -0.697"}
{"sequence": "GGAUUUUGUUCUUACAGUUTT against Nfia", "z-score": "inactive: 0.677"}
{"sequence": "GGAAUUUUGGUAGGUUUUATT against 4930577M16Rik", "z-score": "inactive: 0.873"}
{"sequence": "GAUGCAGCAGCCAUAAGAATT against Defcr-rs12", "z-score": "inactive: -0.997"}
{"sequence": "GGCUCAGGUGUUCAAGAUATT against Cd109", "z-score": "inactive: 0.108"}
{"sequence": "GGCAGAAGUCCAACUUCUUTT against A530088H08Rik", "z-score": "inactive: 1.21"}
{"sequence": "GGACGUGUUUUACAAAUACTT against Sfrs1", "z-score": "inactive: -2.33"}
{"sequence": "GGAAGAGCUCAUGAAGCUGTT against Foxi1", "z-score": "inactive: -0.288"}
{"sequence": "GUUUCAGCCUGAGUGACAATT against 2900009I07Rik", "z-score": "inactive: -0.837"}
{"sequence": "CACCUUCAUUUUUGAAAUCTT against Krt2-6a", "z-score": "inactive: -0.393"}
{"sequence": "GGGUUAUAAUGAAAAUCCUTT against Cabp5", "z-score": "inactive: 0.502"}
{"sequence": "GGGUUUGACAGAGAGAAGATT against Atp5g2", "z-score": "inactive: -1.06"}
{"sequence": "GCUAAACAUUAGGUAAAGGTT against Cyp24a1", "z-score": "inactive: 0.654"}
{"sequence": "GGUGGCUAUAACAGAGCCUTT against AY053573", "z-score": "inactive: -0.327"}
{"sequence": "GAUGUACUUCUUUGUAGCUTT against Olfr398", "z-score": "inactive: 1.06"}
{"sequence": "GGUACUCCCUAAAUCUAAGTT against Zbtb8", "z-score": "inactive: -0.596"}
{"sequence": "GAUGCCUUUUAUGGGUGCATT against Olfr61", "z-score": "inactive: -1.65"}
{"sequence": "GCGAGCUUAUAGGUUCGUGTT against Spop", "z-score": "inactive: -0.502"}
{"sequence": "GCAAUAACCUGGUAGGCUCTT against Fxyd6", "z-score": "inactive: -0.449"}
{"sequence": "GGGCAAAAUUUUACUAAUCTT against Ppp1r9b", "z-score": "inactive: 0.786"}
{"sequence": "GGACUAUGAGCAGAUGAAGTT against Calcb", "z-score": "inactive: -1.61"}
{"sequence": "GGAAGUUCGCUUGGUACCGTT against Snrpb2", "z-score": "inactive: 2.68"}
{"sequence": "GGUUAAUGAGCUCUGUAAATT against Pknox1", "z-score": "inactive: -0.62"}
{"sequence": "CGGGAGUAUCUGCUUCAGUTT against Ndufb4", "z-score": "inactive: 1.35"}
{"sequence": "CCACCAACUACAGAACAUATT against BC016548", "z-score": "inactive: -0.318"}
{"sequence": "GCAGUGAUCCGGAACAAAUTT against Tmc3", "z-score": "inactive: -0.806"}
{"sequence": "GGUGCUGACUCCGACUAAATT against D10Bwg0940e", "z-score": "inactive: 0.441"}
{"sequence": "GGUAAUAAUCUCCUAGAGUTT against Bach1", "z-score": "inactive: 0.532"}
{"sequence": "GGAGCUAUGUUCAGUUCUUTT against Qscn6", "z-score": "inactive: -1.03"}
{"sequence": "GGUCAGCAGCCCAAACAUUTT against Ubl3", "z-score": "inactive: -0.463"}
{"sequence": "CCAGCUCUAGUUUUUAAUCTT against Coq3", "z-score": "inactive: 0.642"}
{"sequence": "GCUAAUUCAAGAGGAACUATT against 4932411G06Rik", "z-score": "inactive: -0.108"}
{"sequence": "CCAACCUGCGCGACUGCCGTT against Sts", "z-score": "inactive: -0.518"}
{"sequence": "GGAAUGAAGUCUGUCUUCGTT against Zdhhc7", "z-score": "inactive: -0.175"}
{"sequence": "GGACAGAUAGGAUUAGAGATT against Igfbp5", "z-score": "inactive: 0.0163"}
{"sequence": "CCCUGAAUGUUCGAGGAGATT against D11Lgp1e", "z-score": "inactive: -0.446"}
{"sequence": "CCUUGAUGUAGCAGGUUUGTT against Aoc2", "z-score": "inactive: 1.53"}
{"sequence": "GGUCAUGCAGGUUUUGAAUTT against AL033314", "z-score": "inactive: -0.69"}
{"sequence": "GCUCCAAUAACAUGAGUAGTT against AW125688", "z-score": "inactive: -2.4"}
{"sequence": "GGCAACAUUAGAAGACAGUTT against Tfb1m", "z-score": "inactive: -0.803"}
{"sequence": "CCUGGUGAAGCUAAUCACCTT against Adamts13", "z-score": "inactive: -2.41"}
{"sequence": "GCCUGACUUUAUGGUAAAATT against Mnat1", "z-score": "inactive: 0.585"}
{"sequence": "CGGAGUAACUCAACUAACATT against Tcte2", "z-score": "inactive: -2.34"}
{"sequence": "GGGCGAUAUUAUGAGCAACTT against Atp1b2", "z-score": "inactive: 1.54"}
{"sequence": "GGAUCCGUUUUGGUGGAAUTT against Enpp4", "z-score": "inactive: 1.83"}
{"sequence": "GCCUUACAUGAGCCCAUGUTT against Olfr550", "z-score": "inactive: -0.448"}
